Results as given in publication doi:10.1101/2024.06.27.600786.
These are yes or no findings as the source states them, for the method shown. In cells and extracts the contact can be indirect. Some results given as binding are weak or reduced against the parent protein; the word gives no strength. Where a sequence is shown, tags or fusion partners need not be part of it. Values belong to the molecule of their own block, whether it stands above or below them.

Sequences of proteins named here, by UniProt entry; tags and fusion partners are left off.
UniProt P51807: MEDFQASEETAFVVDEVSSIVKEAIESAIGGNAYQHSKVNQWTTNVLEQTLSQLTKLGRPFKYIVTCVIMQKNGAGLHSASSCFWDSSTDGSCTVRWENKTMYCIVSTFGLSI

Biological target: T1, Tctex1 domain-containing 2 (TCTEX1D2), 3×FLAG knock-in (mouse) (UniProt Q9CQ66)
T1 sequence: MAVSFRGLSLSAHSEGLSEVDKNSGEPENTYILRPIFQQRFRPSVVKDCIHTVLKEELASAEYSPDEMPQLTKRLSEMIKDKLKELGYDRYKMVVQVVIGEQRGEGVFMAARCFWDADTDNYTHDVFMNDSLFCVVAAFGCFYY
Assay: co-IP

Molecule: DYNLT1 (from UniProt P51807 1-113)
binding: binds

B1: WDR60 (protein, UniProt Q8C761 1-999)
chain: MEPGKRRTKDDTWKADDLRKHLKVQSGSPKEEKKLREKKAHKDSESAAPEYREHKSRDPDREARHKEKTAERDLYTSTEHPRGERDRERHKERRKDAKDREKDKLKERHRDQEAEKAHSRGKDREREKDRRARKEEIRQSMAYHDLLSRDMRGRQMAEKVEKKASKIRTEERERRDEDSERIDEDRERRYRERKLQYGDSKEHPLSYWLYKEDGEKKHRKAKDADREKRLREKSSMREKRERHAREKGSSLSDREVEDRHREKRHKEGLHYDDERRRSHADKKERSSKEEHKKRELKELEKEDNDLEATGPDEYLPNLEDDFVDYEDDFEVCDGDDDSNNEHEAREKAEELPLAQKREIQEIQKAISAENERVGELSLKMFQKQGWTEYTKEPWTDANDSPSRTPVCGIFVDFATASHRQKSRSQALKQKTRSSKLLRLIDLDFSFTFSLLDLPPVNEYDMYIRNFGKKNTKQAYVQYNEDNVERDIQTEDIETREVWTQHPGEGTAVSGGSEEKDFSDVTVVPKIDTPRLANFLRAACQVVAVLLEEDRLAAGPSWIPRAQDKALNISDSSSQLNTSLPFLQSRKVSCLHASRVQRQTVVSVHDLPEKAFAPSLDSRHLLCVWDIWQPSGPQKVLICESKVTCCCFSPLKAFLLFAGTVHGSVVVWDLREDSRIHHYVRLSNCFWAFRTPTFSTDGILTSVNHRSPLQAIEPVATSAYKKQSFVLSPFSTQEEMAGLSFHIASLDETGVLNVWVVVELPKADISGSMSDLGLIPGGRIKLVHSTVIQLGNSLSHKDSELWGSTQTLSVKFLPSDPNHFVVGTDMGLISHSTRQDWRVSPRVFKPEQHGVRPIKVNVIDFSPFEETVFLAGCSDGSIRLHQLTSERPIMQWDNSTSGHAVTSLQWSPTRPAVFLVQDDASRIYVWDLLENDLGPVAQQPISPDKLVAMTIVGEPEKTSGSFVALVLARTSGTVDVQNLKRRWTTPAVDEHSQLRLLLQK
binding: binds

B2: WDR34 (protein, UniProt Q5U4F6 1-537)
chain: MAMCASPRPFRRVGSAGAAALAAGGAGGAERRGRPAPLQDETLGVASVPSQWRSVQGIRGETKSCQTAGIATAESSAQARTHADAQVQTEAPEEPAAMAPVSQYDTLRLEAFLRRVEAMVIRELNNNWQSHAFDGYEVNWTEQQQTVSCLHTLVYPLAQGQGLHVTGISWNSTGSVLACAYGRLDDGDWSTLKSYVCTWNLDRQGLNPQQPSVVVEVPSAVMCLAFHPTQPSHIAGGLYSGEVLVWDMSRPEDPLLWRTGLTDDTHTDPVYQVLWLPEPRHSHRFQVLSAATDGKVLLWRGSGAGQLRLTKGFALAVQQLPRSTKLKKPPRGETEVGVTSVAFSSFDSSLFVLGTEGGFPLKCSLASEVAALTRMPSSVPLRAPVQFTFSPHGGPVYSVSCSPFHRNLFLSAGTDGHVHLYSMLQAQPLTSLQLSHKYLFAVRWSPVRPLVFAAASGEGDVQLFDLQKSSQKPTVSITQTQDGSPVYCLEFNSQQTQLLAAGDAKGMVKVWQLSTAFTEQGPREVEDLDQLEAEITT
binding: binds

Now from value to molecule:

binding: binds
B3: WDR78 (protein, UniProt E9PYY5 1-807)
chain: MHSSPTSTRKQASFAASASAQPRKSISFINPSKSSAGKGYAASNPNKLAVSRTMGFLTDMKPAEKLNVPSAKTVQVLDSKGVDVTPRPLYHPDPHAASAKPNKLLTSQEGSLGSDYISSYSLYQNTLNPSMLGQYTRSVLGSSSVSKSSISTTESMSEDLEDSSYKRDRLASFTDVRVLRSTAEAAISKEELEKTIEIILTETETLRFFDLPTVMFSTESEEAEKIIEKNKKYETLCRNRLGNDLYVERMMQTFNGAPKNKEVQCEKIILEEKGVVATTWDLYDSYNIPETLLAAKRSGYSSKGSLPAKDRDPKIQDSESSSLMDIENVILAKVQEDEEDNSEAILKSDKLHQDLFYMERVLMENVFQPKLAAYRQLPVYKEHEPEEPEETLQVENLKVAEDEPKKEDEEEVEMELELEIATEQSTIPANLERLWSFSCDLTKGLNVSSLSWNKANPDLLAVGYGNFGFREQKKGMACCWSIKNPMWPERIYQSSYGVTSVDFSNSSPNLLAVGYHNGTVAIYNVQSSHNIPVLDSSESPQKHLGPVWQVQWIEQDRGTTGDDKREILVSISADGRISKWIIRKGLDCHDLMRLKRTTATGGKKGGEKEKKGEALISRQAPGMCFAFHPKDTNIYLAGTEEGLIHKCSCSYNEQYLETYRGHKGPVYKVTWNPFCPDVFLSCSADWGVMIWHQDTVKPFLSFYPTTYVVYDVSWSPKSAYIFAAANENRVEIWDLQISTLDPLIVNVANPGIKFTTVLFAKETDCLLVGDSDGQVAVYELRNMPTASDTSRGDVINILLGPKTNHTG

binding: binds
B4: WDR63 (protein, UniProt B2RY71 1-923)
chain: MAPKPPKSPKGQKKGKKNMKQQLLVPEEEEPMNMESMGHPEIYPLVLTTKTQEIFNCRVDEDMTDEQTYKLIKKEDILADLQNRAAVSDFHPVKKIVREYPGEELLLVYDKDFKYGLNFYLIGTEDGKENFLKPPEVPEEQEEPKEHVQEDVYVYNPPVSKPWVSLGSEKEIEEESVQESGKRVTYMISRKRSEFGAPVTFSDQNASSVKDAYIECTSYPEKNYTLSQVEKDVGLQVIAEVKDTSTQTKWAFPKNATTQYYPREFSEEEKSLIGKSKSLVDFFNNVSTSVEVALQQNEIMNTFIDDWKNLAEEESTFGDKTDTHLKEYQSFTDLHNTMEKMITCVSWHPTIFGLIVVSVAVRLSYEERVQNSGRLLLQPSLLLFWSFSDPIHPQLMLESPDDIFCFEFCPSDPNIIAGGCINGQIVLWDITAHADRIENIKTGGHRSKKTSLKPMFLLEPDSNKESMYIRHCAVSSIENGHRKVITDIHWLPDSFEINRMGSVFENRSGINCQLVTCSADCTICFWDIRPQKPAVTAAAAASAATTATNNANSQQSPVEKKKEENIDIPFDVPSTFLHLDLSWKPLSRLKLSKGDTSLDHCPTKLSLGEDPFLCKIQGTSSIHIILRDKMLSQIKMVKTSEINPYQNLEAGIANILKPIEDFCTKFFVGTEEGEVIYTDWKMERDSDTGRLMAKKPVSLYTVHDGAVHTIQRSPFFNDIVLTVGGWNVAIWKEEVMTGPLLQTCCGPKRYTAGHWSLTRPGVFYIGREDGNVDIWDLLEKTHEPAQSQNICITMITYIKPWTFSSKQQFIAVADYYGTLHILEIPWTLSHPSLNEVSSVNYYFEREVRHLEYVQQRKEIREQEKIDMALELVKKKAKIYQKTKEQMEAELKLEYESYLDLEKSVLFALGLSKVSEKKSYLDSH
